Some of these results come from one statement about several compounds together.
System: type I NKT cells
Experiment: In vitro αGalCer-stimulated proliferation of splenic type I NKT cells ([3H]-thymidine incorporation)
Format: cell-based, naïve B6 mice
Details: Example 14
Protocol: Retinoic acid receptors (RARs) comprise three major subtypes: RARα, RAR β, and RARγ. The RAR agonist ATRA is not selective for a specific subtype. The contribution of RAR subtypes to inhibition of type I NKT cell activity was tested with subtype-selective RAR agonists as follows. Splenic cells were isolated from naïve B6 (WT) mice and cultured in vitro in the presence of [^3H]-thymidine, an optimal concentration of αGalCer, and graded concentrations of the pan-RAR agonist ATRA, the RARα agonist AM580, the RAR β 2 agonist AC55649 or the RARγ agonist CD1530. Proliferation of the type I NKT cells in response to αGalCer stimulation was measured by [^3H]-thymidine incorporation. […]
In vitro proliferation and cytokine release assays were performed on freshly isolated splenocytes and type I NKT cell hybridomas (1.2 Hyb). The cells were cultured in the presence of [3H]-thymidine and an optimal concentration of αGalCer (10 ng/ml) with titrating concentrations of ATRA, Tretinoin, the RARα agonist AM580, the RAR β agonist AC55649 or the RARγ agonist CD1530. Proliferation of the type I NKT cells in response to αGalCer stimulation was quantified by [^3H]-thymidine incorporation. IL-2 levels were measured using IL-2 sandwich ELISA. Optimal concentrations of the RAR agonists was determined. […]

Compound | concentration giving no or minimal type I NKT cell proliferation (same level of inhibition as 10^1 μg/ml ATRA)
CC1=C(/C=C/C(C)=C\C=C\C(C)=C\C(=O)O)C(C)(C)CCC1 [9-cis-RA] | exceeded 10^1 μg/ml
CC1=C(/C=C/C(C)=C/C=C/C(C)=C\C(=O)O)C(C)(C)CCC1 [13-cis-RA] | exceeded 10^1 μg/ml
CC1=C(/C=C/C(C)=C/C=C/C(C)=C/CO)C(C)(C)CCC1 [Retinol] | exceeded 10^1 μg/ml

Reference: patent US11660309B2, “Prevention and treatment of inflammatory conditions” (GRI BIO, INC., priority 2011, dated 2023)
